{
  "source": "patent US10478404B2",
  "about": "“Materials, methods and devices for altering cell reactivity” (The Arizona Board of Regents on behalf of The University of …, priority 2014, dated 2019)",
  "system": "PRP",
  "experiment": "Biochemically induced platelet activation (aggregation) with membrane modulators",
  "assay_type": "cell-based, human",
  "conditions": "compared to control (1% ETOH), FIG. 4A",
  "note": "For at least one compound, name, drawing or mass did not settle the structure.",
  "data": [
    {"smiles": "CC/C=C\\C/C=C\\C/C=C\\C/C=C\\C/C=C\\CCCC(=O)O", "note": "[EPA, Eicosapentaenoic acid]", "values": [
      {"measurement": "ADP-induced platelet aggregation", "value": "reduced platelet aggregation"},
      {"measurement": "collagen-induced platelet aggregation", "value": "reduced platelet aggregation"}
    ]},
    {"smiles": "CC/C=C\\C/C=C\\C/C=C\\C/C=C\\C/C=C\\C/C=C\\CCC(=O)O", "note": "[DHA, Docosahexaenoic acid]", "values": [
      {"measurement": "ADP-induced platelet aggregation", "value": "reduced platelet aggregation"},
      {"measurement": "collagen-induced platelet aggregation", "value": "reduced platelet aggregation"}
    ]}
  ]
}
